Reference: paper PMC10981675, “Structural basis for phage-mediated activation and repression of bacterial DSR2 anti-phage defense system” (Nature Communications, 2024)
Where a chain is given by its changes, count along the chain named. These are yes or no findings as the source states them, for the method shown. Some results given as binding are weak or reduced against the parent protein; the word gives no strength.

Columns and labels:
[1] = target: T1, DSR2 W59A (Bacillus subtilis) (UniProt P0DXN8); test: tandem affinity co-purification + SEC; His-DSR2 and GST-tube made in E. coli; for wild type the cells expressing each were mixed before lysis; Ni-NTA, then glutathione resin, GST removed with HRV 3C, HiTrap Q, Superdex 200 Increase; mutants purified by the same method
T1 sequence: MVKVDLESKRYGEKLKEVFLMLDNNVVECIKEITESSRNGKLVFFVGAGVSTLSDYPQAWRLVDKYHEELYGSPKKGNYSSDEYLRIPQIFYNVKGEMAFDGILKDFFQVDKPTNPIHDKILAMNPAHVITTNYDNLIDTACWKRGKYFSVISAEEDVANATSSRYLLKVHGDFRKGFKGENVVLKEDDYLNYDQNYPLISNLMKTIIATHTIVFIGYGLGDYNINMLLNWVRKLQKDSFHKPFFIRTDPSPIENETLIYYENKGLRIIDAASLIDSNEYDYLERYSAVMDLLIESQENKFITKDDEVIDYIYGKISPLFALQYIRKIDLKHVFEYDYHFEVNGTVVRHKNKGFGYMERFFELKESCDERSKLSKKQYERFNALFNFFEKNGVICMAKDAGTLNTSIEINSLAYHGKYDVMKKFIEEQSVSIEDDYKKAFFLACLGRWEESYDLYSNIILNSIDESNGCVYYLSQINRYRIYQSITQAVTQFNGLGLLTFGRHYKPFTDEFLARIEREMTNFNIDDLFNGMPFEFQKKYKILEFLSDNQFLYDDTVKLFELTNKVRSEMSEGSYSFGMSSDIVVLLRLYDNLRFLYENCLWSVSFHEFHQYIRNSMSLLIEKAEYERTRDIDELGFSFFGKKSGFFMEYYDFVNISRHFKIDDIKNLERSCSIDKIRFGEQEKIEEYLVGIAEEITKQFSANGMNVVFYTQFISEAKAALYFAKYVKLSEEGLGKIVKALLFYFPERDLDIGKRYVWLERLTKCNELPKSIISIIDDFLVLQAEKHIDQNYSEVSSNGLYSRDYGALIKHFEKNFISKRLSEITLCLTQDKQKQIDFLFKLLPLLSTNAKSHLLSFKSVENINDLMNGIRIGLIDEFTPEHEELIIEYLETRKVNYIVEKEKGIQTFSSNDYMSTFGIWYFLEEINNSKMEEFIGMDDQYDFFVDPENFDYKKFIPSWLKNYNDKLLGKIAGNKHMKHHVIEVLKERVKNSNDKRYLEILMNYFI

[2] = target: T2, DSR2 N133A (Bacillus subtilis) (UniProt P0DXN8); test: as above
T2 sequence: T1 sequence with A59W, N133A

B1: tail tube protein of phage SPR, wild type (natural protein)
chain: MKTVIQDTADVYFKRKSDGKLVFTAEAQTASFSQAISEEKLRGGIGNKPLYILKSEKEINLTVKNAFFDLEWLAMTQGETIQEETKVKVFDREHGLIVDDTNKVTLKGKPVSDVTFYNKKGLTYKIAVSTDGTYTIPTAFAAAKDKLTAVYQIEKVGRRLAIKASKFSERYEVEYRTIAYNPDTEEVYSDIYIQFPNVSPSGEFEMSLENGNALAPEIKFEALADTDTDEMAVVIEASRDENTAAPVEDTTGSTQSSDLGGTTE
notes: tail tube protein of Bacillus phage SPR; domains D1 and D2; GST removal with HRV 3C is told for the DSR2-tube complex; Alone it runs as monomeric and oligomeric species on SEC; Only D1 is seen in the maps; also called phage tail tube protein; source: E. coli BL21 Star (DE3); purified alone, or co-purified with DSR2 (Ni-NTA, glutathione resin, HRV 3C cleavage, HiTrap Q, Superdex 200); not shown: …
- binding [1]: binds
- binding [2]: binds
